The assay concerns the target HA-pVHL (UniProt P40337). Briefly: co-IP; 293T cells transfected, harvested at 24 h; 500 µg of cell lysate, immunoprecipitation with HA antibody and protein A/G PLUS agarose at 4°C, immunoblotting.

The chains behind the UniProt entries cited, without tags or fusion partners. Residues count along the entry.
UniProt P40337: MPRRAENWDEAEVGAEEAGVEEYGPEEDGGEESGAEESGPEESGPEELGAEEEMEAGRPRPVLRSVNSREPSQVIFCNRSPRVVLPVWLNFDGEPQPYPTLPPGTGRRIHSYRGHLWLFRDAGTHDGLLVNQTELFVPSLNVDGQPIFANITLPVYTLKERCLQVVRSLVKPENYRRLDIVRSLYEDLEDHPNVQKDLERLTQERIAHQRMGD
UniProt P10909, residues 23-449: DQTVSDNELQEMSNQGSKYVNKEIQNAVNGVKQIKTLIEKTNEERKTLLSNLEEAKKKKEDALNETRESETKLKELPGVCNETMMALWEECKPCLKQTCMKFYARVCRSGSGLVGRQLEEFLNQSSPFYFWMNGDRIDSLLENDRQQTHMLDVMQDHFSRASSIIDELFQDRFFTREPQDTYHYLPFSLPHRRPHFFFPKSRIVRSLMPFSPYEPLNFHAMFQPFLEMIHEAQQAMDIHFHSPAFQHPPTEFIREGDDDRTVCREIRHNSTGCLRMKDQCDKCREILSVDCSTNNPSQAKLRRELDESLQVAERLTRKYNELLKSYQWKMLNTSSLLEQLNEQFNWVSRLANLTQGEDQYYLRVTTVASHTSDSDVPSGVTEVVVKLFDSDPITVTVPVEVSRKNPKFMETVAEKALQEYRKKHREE

These are yes or no findings as the source states them, for the method shown. Binding seen in cells or lysates may run through a third protein.

Turning to Myc-sCLU (from UniProt P10909-1 23-449), the binding entry was “no binding”.

The values above are taken from paper PMC3332038.
